This is an account of results in the supplement of paper PMC10849652.

Chains of the proteins cited; added tags and fusions are not shown. Lines headed by an entry give the natural chain unless they say otherwise; changes in a name come on top.
UniProt O14686, whole entry, looked up: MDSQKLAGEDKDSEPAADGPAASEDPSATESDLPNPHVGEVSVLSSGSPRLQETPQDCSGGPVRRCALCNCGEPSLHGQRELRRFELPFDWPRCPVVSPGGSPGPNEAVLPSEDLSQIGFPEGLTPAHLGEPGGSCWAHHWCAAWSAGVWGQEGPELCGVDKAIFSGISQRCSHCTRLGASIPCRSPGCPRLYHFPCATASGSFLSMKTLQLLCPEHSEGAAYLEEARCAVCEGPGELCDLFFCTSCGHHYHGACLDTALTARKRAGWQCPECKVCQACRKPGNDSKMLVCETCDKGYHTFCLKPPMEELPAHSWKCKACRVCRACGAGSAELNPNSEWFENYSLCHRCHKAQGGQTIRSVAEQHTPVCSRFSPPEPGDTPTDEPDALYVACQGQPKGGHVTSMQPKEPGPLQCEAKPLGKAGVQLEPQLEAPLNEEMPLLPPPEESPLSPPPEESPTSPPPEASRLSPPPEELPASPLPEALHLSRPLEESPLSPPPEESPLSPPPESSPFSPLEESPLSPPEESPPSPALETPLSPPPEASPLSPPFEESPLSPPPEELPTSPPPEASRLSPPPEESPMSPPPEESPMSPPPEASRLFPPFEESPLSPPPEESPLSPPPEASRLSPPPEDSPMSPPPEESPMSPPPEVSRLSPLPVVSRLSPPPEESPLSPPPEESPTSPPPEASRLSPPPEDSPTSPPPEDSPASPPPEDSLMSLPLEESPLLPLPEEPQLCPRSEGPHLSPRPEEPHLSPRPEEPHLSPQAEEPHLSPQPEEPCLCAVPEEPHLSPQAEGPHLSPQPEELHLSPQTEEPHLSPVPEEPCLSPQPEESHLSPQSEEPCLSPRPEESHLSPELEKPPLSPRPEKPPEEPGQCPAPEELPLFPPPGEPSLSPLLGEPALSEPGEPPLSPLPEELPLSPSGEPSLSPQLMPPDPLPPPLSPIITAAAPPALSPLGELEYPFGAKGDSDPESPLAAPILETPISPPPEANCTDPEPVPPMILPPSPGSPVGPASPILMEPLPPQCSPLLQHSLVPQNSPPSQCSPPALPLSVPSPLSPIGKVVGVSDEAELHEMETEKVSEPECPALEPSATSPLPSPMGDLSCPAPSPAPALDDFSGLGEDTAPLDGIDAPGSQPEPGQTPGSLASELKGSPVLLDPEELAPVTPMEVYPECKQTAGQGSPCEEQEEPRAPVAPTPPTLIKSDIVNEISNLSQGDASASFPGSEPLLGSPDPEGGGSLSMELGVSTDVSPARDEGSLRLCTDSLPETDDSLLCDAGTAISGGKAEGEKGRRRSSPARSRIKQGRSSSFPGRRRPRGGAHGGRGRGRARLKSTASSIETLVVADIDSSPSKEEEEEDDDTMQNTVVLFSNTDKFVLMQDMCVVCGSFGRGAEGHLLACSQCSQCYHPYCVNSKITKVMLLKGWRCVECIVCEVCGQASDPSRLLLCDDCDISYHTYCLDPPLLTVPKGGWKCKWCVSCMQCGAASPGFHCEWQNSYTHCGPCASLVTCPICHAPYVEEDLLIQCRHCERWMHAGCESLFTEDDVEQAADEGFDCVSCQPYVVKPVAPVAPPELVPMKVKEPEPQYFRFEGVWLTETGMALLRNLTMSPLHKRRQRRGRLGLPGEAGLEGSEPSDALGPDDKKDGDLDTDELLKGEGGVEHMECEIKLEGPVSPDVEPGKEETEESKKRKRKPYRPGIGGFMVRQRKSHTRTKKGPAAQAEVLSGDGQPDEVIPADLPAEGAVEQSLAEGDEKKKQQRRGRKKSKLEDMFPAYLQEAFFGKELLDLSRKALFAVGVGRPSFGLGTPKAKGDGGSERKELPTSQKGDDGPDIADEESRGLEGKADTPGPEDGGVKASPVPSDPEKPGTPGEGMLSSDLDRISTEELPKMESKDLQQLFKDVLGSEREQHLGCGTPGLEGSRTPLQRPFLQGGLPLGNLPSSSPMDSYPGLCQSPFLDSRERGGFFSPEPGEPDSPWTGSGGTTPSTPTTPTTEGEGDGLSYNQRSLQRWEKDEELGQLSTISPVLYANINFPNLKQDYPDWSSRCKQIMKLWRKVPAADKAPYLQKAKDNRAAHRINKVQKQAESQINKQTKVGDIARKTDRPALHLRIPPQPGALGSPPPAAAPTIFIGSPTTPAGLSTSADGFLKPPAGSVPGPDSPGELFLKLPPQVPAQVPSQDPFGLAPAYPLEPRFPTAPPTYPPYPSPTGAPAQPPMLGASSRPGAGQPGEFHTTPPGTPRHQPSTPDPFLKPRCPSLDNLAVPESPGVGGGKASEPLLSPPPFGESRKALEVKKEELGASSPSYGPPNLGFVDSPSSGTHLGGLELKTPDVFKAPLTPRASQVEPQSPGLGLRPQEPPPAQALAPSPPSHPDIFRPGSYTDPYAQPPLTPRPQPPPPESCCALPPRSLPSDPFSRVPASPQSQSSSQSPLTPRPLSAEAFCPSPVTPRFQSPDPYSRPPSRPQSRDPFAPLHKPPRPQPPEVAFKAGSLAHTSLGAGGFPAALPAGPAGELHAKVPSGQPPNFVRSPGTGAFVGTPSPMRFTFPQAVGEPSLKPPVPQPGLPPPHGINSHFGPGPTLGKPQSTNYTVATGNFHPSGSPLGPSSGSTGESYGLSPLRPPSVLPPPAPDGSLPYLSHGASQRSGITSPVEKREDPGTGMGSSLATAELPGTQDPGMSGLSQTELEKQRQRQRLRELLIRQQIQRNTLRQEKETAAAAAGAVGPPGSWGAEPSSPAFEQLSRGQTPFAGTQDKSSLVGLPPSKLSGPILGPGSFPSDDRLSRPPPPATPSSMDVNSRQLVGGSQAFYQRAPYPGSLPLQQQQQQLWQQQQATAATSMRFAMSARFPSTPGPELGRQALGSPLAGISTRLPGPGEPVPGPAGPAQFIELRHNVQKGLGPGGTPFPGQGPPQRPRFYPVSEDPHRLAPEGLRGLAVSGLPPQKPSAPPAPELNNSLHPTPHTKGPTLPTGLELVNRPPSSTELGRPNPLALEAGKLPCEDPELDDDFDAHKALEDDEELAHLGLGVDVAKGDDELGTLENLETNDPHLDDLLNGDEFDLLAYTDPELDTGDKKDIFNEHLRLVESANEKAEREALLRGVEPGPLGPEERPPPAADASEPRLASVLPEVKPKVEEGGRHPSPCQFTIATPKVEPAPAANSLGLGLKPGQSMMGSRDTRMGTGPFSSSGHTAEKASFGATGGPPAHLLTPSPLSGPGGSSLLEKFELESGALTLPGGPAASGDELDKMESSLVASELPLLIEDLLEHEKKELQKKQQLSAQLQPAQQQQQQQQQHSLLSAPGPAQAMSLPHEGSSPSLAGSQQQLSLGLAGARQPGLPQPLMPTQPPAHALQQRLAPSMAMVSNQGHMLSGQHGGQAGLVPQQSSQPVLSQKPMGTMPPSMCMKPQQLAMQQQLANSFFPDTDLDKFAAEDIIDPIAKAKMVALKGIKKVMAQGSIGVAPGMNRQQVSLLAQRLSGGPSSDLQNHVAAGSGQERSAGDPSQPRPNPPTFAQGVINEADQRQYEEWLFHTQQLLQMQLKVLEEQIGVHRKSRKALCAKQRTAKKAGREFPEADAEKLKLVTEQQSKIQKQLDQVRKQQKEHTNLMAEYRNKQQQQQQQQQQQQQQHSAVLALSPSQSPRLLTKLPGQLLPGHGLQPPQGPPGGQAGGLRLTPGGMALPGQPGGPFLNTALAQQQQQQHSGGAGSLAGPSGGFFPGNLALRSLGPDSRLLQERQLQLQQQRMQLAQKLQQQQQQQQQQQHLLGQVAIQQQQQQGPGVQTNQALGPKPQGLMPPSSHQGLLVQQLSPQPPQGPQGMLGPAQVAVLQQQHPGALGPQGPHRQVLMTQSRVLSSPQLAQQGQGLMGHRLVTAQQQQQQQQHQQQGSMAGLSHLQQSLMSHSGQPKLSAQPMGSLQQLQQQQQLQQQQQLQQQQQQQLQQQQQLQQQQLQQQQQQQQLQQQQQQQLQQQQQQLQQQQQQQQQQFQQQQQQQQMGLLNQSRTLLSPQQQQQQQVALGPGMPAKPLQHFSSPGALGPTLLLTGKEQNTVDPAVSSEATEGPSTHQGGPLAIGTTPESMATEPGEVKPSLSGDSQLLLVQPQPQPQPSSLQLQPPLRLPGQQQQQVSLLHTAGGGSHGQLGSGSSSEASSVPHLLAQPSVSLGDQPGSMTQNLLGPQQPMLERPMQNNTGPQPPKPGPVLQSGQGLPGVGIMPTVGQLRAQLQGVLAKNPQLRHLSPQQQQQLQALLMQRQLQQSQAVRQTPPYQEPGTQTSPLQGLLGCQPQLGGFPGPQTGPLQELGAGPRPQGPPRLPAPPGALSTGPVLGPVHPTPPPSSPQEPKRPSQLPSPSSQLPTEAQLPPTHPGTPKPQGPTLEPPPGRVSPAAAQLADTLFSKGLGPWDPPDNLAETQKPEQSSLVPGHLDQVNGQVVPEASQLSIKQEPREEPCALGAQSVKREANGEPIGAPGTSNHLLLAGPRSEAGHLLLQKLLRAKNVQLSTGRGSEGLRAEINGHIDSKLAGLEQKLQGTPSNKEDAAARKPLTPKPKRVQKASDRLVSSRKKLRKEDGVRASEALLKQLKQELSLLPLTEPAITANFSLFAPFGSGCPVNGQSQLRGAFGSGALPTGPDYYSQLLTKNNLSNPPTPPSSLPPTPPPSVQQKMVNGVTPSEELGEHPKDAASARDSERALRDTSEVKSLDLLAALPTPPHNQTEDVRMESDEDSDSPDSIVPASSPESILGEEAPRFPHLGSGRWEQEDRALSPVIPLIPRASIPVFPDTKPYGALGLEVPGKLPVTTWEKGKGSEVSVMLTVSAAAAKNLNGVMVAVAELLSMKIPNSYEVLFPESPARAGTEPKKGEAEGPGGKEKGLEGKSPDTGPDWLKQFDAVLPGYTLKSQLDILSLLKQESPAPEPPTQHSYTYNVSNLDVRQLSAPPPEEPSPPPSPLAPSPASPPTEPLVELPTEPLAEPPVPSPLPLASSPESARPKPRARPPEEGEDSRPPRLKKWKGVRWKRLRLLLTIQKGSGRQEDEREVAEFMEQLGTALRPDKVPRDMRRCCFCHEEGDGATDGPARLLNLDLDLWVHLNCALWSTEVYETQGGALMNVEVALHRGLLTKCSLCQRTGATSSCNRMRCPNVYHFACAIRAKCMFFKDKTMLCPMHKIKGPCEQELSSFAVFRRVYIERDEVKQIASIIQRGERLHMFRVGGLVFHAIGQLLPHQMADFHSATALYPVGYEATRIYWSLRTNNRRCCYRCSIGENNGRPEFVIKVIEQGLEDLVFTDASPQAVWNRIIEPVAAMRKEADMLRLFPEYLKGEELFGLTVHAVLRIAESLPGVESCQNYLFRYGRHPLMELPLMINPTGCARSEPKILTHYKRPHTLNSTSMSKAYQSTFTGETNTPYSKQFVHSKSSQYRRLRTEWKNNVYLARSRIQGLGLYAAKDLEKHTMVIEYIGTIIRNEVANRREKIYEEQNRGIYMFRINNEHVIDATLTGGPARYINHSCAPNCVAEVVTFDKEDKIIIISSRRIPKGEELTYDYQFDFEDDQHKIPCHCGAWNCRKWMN
UniProt Q9Y2Y9: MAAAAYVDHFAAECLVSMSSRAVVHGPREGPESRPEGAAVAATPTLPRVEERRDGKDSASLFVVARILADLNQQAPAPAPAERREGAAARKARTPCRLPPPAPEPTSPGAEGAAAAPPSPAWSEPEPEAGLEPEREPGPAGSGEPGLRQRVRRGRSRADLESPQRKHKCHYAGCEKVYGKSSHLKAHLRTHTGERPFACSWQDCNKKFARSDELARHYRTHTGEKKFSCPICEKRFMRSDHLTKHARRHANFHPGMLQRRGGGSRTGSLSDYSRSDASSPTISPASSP
UniProt Q8N3Y3: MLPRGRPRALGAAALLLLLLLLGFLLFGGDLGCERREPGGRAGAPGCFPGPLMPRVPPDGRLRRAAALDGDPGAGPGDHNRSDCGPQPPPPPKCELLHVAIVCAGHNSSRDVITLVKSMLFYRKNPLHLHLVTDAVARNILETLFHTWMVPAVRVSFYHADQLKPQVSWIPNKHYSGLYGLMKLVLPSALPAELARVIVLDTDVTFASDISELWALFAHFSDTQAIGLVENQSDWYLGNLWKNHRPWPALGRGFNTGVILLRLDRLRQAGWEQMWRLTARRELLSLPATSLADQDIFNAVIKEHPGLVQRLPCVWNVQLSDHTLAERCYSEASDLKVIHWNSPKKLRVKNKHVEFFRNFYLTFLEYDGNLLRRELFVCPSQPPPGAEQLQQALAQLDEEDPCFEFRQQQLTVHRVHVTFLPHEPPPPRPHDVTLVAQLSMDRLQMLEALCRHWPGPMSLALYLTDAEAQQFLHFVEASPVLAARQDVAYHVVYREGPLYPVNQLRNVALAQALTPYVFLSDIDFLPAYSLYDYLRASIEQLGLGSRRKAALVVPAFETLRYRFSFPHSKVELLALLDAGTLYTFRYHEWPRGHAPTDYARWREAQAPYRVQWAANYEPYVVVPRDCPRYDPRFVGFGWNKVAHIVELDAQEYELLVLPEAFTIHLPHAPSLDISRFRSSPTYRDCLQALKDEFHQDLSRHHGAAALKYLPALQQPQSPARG

This is one part of the list.

Holding throughout (assay): log2 fold change, soluble protein after heating vs DMSO (PISA); higher = thermal stabilisation; K562 lysate, 10 uM; active = over 0.2 and 3.5 SD of the protein, either way, in both replicates (recomputed)
Compound in experiment [1]: CC(C)C1=C2N=C(C=C(N2N=C1)NCC3=CC=CC=C3)NCCCCCCN
In outline: (§1)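 Soluble protein was defined as the supernatant remaining after 21,000xg for 90 min, following pooling of heated aliquots and adjustment to 0.5% NP-40 at 4°C. Before that, crude K562 extract at 1 mg/mL protein in PBS pH 7.4 with 1 mM MgCl2 was treated with 10 μM compound for 30 min and heated for 3 min across 48°C-58°C. Quantification used TMTpro 16plex LC-MS/MS with channel sums equalised, and values are log-two fold changes in thermal stability relative to solvent controls from duplicates.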

Compound in experiment [2]: CC1=C(C=C(C=C1)NC(=O)C2=CC(=CC=C2)C(C)(C)C#N)NC3=CC4=C(C=C3)N=CN(C4=O)C
The procedure, abridged:
as §1

Compound in the next experiment: CCCS(=O)(=O)Nc1ccc(F)c(C(=O)c2c[nH]c3ncc(-c4ccc(Cl)cc4)cc23)c1F [vemurafenib]
The procedure, abridged: as §1

Compound in a further experiment: CN1CCN(c2nc(C3=C(c4c[nH]c5ccccc45)C(=O)NC3=O)c3ccccc3n2)CC1 [sotrastaurin]
The procedure, abridged: as §1

Compound in experiment [3]: CC1=C(C2=C(C=C1)C(=O)C3=CC=CC=C3N2CCCN)C
The procedure, abridged:
as §1

Compound in a further experiment: CN1CCN(CCOc2cc(OC3CCOCC3)c3c(Nc4c(Cl)ccc5c4OCO5)ncnc3c2)CC1 [saracatinib]
The procedure, abridged: as §1

Compound in another experiment: CC(C)(C)Cn1c(N)nc2ccc(-c3[nH]c(C(C)(C)C)nc3-c3ccc(F)cc3)nc21 [ralimetinib]
In outline: as §1

Compound in experiment [4]: CC(C)(O)CC(=O)NCCn1ccc2ncnc(Nc3ccc(Oc4cccc(C(F)(F)F)c4)c(Cl)c3)c21
In outline: as §1

Compound in experiment [5]: CC1=C(C(CC(=O)N1)C2=CC=C(C=C2)C(F)(F)F)C(=O)NC3=C(C=C4C(=C3)C=NN4)F
The procedure, abridged:
as §1

Compound in experiment [6]: CC1=C(C=C(C=C1)NC(=O)C2=CC(=CC=C2)N(C)C)NC(=O)C3=CC=C(C=C3)O
In outline:
as §1

Compound in experiment [7]: CCn1c(C(=O)N(C2CC2)C2CC2)cc2c3c(ncn3C)c(Nc3cc(C)n(C)n3)nc21
The procedure, abridged:
as §1

Compound in experiment [8]: CC[C@@H]1C(=O)N(C)c2cnc(Nc3ccc(C(=O)NC4CCN(C)CC4)cc3OC)nc2N1C1CCCC1
The procedure, abridged: as §1

Compound in experiment [9]: CCn1cc(-c2ccnc3[nH]c(-c4cccc(CN(C)C)c4)cc23)c(-c2ccc(NC(=O)N(C)C)cc2)n1
In outline: as §1

Compound in experiment [10]: CN1CCC(CNc2ccc3ncc(-c4cccc(OC(F)(F)F)c4)n3n2)CC1
In outline: as §1

Compound in experiment [11]: CC(=O)c1cnc2ccc(-c3cc(Cl)c(O)c(Cl)c3)nc2c1N[C@H]1CC[C@H](CN(C)C)CC1
The procedure, abridged: as §1

Compound in experiment [12]: CC1=CC=C(C=C1)SC2=C3C=C(SC3=CN=C2)C(=O)N
In outline: as §1

Compound in experiment [13]: CCCS(=O)(=O)Nc1ccc(F)c(C(=O)c2c[nH]c3ncc(Cl)cc23)c1F
The procedure, abridged: as §1

Compound in another experiment: CC[C@@H]1C(=O)N(C)c2cnc(Nc3ccc(C(=O)N[C@H]4CC[C@H](N5CCN(CC6CC6)CC5)CC4)cc3OC)nc2N1C(C)C [volasertib]
The procedure, abridged: as §1

As for KLHDC2 (UniProt Q9Y2U9), the log2 fold change in [1] is inactive: 0.055; in experiment [2], inactive: -0.091; with vemurafenib it was inactive: 0.032; in the experiment with sotrastaurin it was inactive: 0.04.
As to KRT87P (UniProt A6NCN2), in experiment [1], the log2 fold change is inactive: 0.109.
In the case of LAPTM4A (UniProt Q15012), the log2 fold change in [3] is inactive: 0.279; with vemurafenib, inactive: -0.05; with saracatinib, inactive: 0.119.
Consider KIAA0586 isoform 3 (UniProt Q9BVV6), for which the log2 fold change with ralimetinib was inactive: -0.079; in experiment [4] it was inactive: -0.059; in [1], inactive: 0.08; in experiment [5], inactive: 0.088; in experiment [3], inactive: 0.032; in experiment [2], inactive: 0.118. Also, the log2 fold change in experiment [6] was inactive: 0.042; in [7], inactive: 0.093; in the experiment with saracatinib, inactive: 0.017; in the experiment with sotrastaurin, inactive: 0.181.
Regarding KIF16B isoform 2 (UniProt Q96L93), the log2 fold change in the experiment with ralimetinib was inactive: 0.013; in [4], inactive: -0.05; in [1] it was inactive: -0.033; in experiment [5] it was inactive: -0.007; in experiment [3], inactive: 0.112; in experiment [2], inactive: -0.005. Further, the log2 fold change was inactive: 0.096 in experiment [6]; inactive: 0.127 with vemurafenib; inactive: 0.019 in experiment [8]; inactive: 0.107 in experiment [7]; inactive: -0.227 in experiment [9]; inactive: 0.156 in experiment [10]. Further, the log2 fold change with saracatinib is inactive: 0.223; with sotrastaurin, inactive: 0.011.
Regarding KLHL8 (UniProt Q9P2G9), the log2 fold change with ralimetinib is inactive: -0.275; in experiment [4], inactive: -0.16; in [6], inactive: 0.044; in experiment [7], inactive: 0.029.
Turning to KIF2A isoform 2 (UniProt O00139), the figures for the log2 fold change in [9] and in experiment [10] were inactive: 0.129 and inactive: 0.316, respectively.
As to KIDINS220 isoform 2 (UniProt Q9ULH0), in the experiment with vemurafenib, the log2 fold change is inactive: 0.093.
Consider LACRT (UniProt Q9GZZ8), for which the log2 fold change in experiment [11] is inactive: -0.2; in experiment [1], inactive: 2.36; in experiment [12], inactive: -0.097; in experiment [13] it was inactive: -0.045; with volasertib, inactive: 0.233.
Consider KMT5A (UniProt Q9NQR1), for which the log2 fold change in [9] is inactive: 0.174; in experiment [10], inactive: -0.168.
KLHDC8B (UniProt Q8IXV7): the log2 fold change with ralimetinib was inactive: -0.092; in experiment [4], inactive: -0.004; in experiment [1], inactive: 0.016; in experiment [5] it was inactive: -0.037; in [3], inactive: 0.104; in [2], inactive: 0.079. The log2 fold change in [6] is inactive: 0.106; in experiment [8], inactive: 0.018; in experiment [7], inactive: 0.003; in the experiment with saracatinib, inactive: -0.039; in the experiment with sotrastaurin, inactive: 0.037.
Turning to KMT2D (UniProt O14686), the log2 fold change was inactive: 0.046 in experiment [3] and inactive: -0.325 with saracatinib.
For KLF13 (UniProt Q9Y2Y9), the log2 fold change was inactive: -0.109 in [2] and inactive: -0.09 with sotrastaurin.
For KREMEN1 isoform 2 (UniProt Q96MU8) the same measures were inactive: -0.045 and inactive: -0.018.
In the case of LARGE2 (UniProt Q8N3Y3), the log2 fold change in experiment [5] is inactive: -0.002; in experiment [9], inactive: -0.087; in [10] it was inactive: 0.157.
In the case of KDM4B (UniProt O94953), the log2 fold change with ralimetinib was inactive: 0.044; in [4], inactive: -0.056; in experiment [1] it was inactive: 0.009; in [5] it was inactive: -0.015; in experiment [3], inactive: -0.033; in experiment [2], inactive: -0.018. Also, the log2 fold change was inactive: 0.007 in experiment [6]; inactive: 0.06 in the experiment with vemurafenib; inactive: -0.075 in experiment [8]; inactive: 0.175 in [7]; inactive: 0.085 in [9]; inactive: 0.073 in experiment [10]. The results for the log2 fold change with saracatinib and with sotrastaurin were inactive: -0.011 and inactive: -0.07, respectively.
Consider KRAS (UniProt P01116), for which the log2 fold change in experiment [11] was inactive: 0.006; with ralimetinib it was inactive: -0.023; in experiment [4], inactive: 0.063; in experiment [1], inactive: -0.008; in [5], inactive: -0.037; in experiment [3], inactive: 0.018. Also, the log2 fold change is inactive: -0.048 in experiment [2]; inactive: 0.07 in experiment [6]; inactive: -0.058 in [12]; inactive: 0.061 with vemurafenib; inactive: 0.019 in experiment [13]; inactive: 0.019 in [8]. In addition, the log2 fold change was inactive: 0.063 in the experiment with volasertib; inactive: -0.053 in [7]; active: -0.278 in [9]; inactive: 0.06 in [10]; inactive: 0.066 with saracatinib; inactive: 0.012 with sotrastaurin.
For the target KMT2B (UniProt Q9UMN6), the log2 fold change is inactive: 0.53 in [1]; inactive: -0.135 in experiment [3]; inactive: -0.072 in experiment [2]; inactive: -0.1 in experiment [8]; inactive: 0.081 in the experiment with saracatinib; inactive: -0.206 with sotrastaurin.
In the case of KISS1R (UniProt Q969F8), the log2 fold change in [5] is inactive: -0.016; in experiment [2], inactive: 0.339; with sotrastaurin it was inactive: -0.109.
Consider KRAS isoform 2 (UniProt P01116), for which the log2 fold change in [11] is inactive: 0.05; in the experiment with ralimetinib, inactive: 0.071; in experiment [4], inactive: -0.078; in experiment [1], inactive: -0.05; in experiment [3] it was inactive: -0.011; in experiment [2], inactive: -0.025. Besides, the log2 fold change in experiment [6] is inactive: 0.004; in experiment [12], inactive: 0.059; in [13] it was inactive: 0.019; in experiment [8] it was inactive: 0.156; with volasertib, inactive: -0.125; in experiment [7], inactive: 0.077. Also, the log2 fold change in the experiment with saracatinib was inactive: -0.06; with sotrastaurin it was inactive: -0.013.
As to KMT2E (UniProt Q8IZD2), the log2 fold change in the experiment with ralimetinib is inactive: -0.074; in experiment [4], inactive: 0.007; in experiment [1] it was inactive: 0.037; in [5], inactive: -0.052; in experiment [3], inactive: 0; in [2], inactive: -0.011. For the same target, the log2 fold change in experiment [6] is inactive: -0.006; with vemurafenib, inactive: -0.055; in [8], inactive: 0.158; in experiment [7], inactive: 0.021; in experiment [9], inactive: 0.002; in experiment [10] it was inactive: -0.081. The log2 fold change in the experiment with saracatinib was inactive: 0.041; in the experiment with sotrastaurin, inactive: 0.064.
On to KDM5A (UniProt P29375), for which the log2 fold change is inactive: -0.066 with ralimetinib; inactive: 0.074 in [4]; inactive: 0 in [3]; inactive: 0.092 in experiment [2]; inactive: 0.253 in [6]; inactive: -0.063 in [7]. Besides, the log2 fold change was inactive: 0.06 in [9], inactive: 0.13 in experiment [10], inactive: 0.148 with saracatinib and inactive: -0.072 in the experiment with sotrastaurin.
